The chains behind the UniProt entries cited, without tags or fusion partners.
UniProt Q8NDV7: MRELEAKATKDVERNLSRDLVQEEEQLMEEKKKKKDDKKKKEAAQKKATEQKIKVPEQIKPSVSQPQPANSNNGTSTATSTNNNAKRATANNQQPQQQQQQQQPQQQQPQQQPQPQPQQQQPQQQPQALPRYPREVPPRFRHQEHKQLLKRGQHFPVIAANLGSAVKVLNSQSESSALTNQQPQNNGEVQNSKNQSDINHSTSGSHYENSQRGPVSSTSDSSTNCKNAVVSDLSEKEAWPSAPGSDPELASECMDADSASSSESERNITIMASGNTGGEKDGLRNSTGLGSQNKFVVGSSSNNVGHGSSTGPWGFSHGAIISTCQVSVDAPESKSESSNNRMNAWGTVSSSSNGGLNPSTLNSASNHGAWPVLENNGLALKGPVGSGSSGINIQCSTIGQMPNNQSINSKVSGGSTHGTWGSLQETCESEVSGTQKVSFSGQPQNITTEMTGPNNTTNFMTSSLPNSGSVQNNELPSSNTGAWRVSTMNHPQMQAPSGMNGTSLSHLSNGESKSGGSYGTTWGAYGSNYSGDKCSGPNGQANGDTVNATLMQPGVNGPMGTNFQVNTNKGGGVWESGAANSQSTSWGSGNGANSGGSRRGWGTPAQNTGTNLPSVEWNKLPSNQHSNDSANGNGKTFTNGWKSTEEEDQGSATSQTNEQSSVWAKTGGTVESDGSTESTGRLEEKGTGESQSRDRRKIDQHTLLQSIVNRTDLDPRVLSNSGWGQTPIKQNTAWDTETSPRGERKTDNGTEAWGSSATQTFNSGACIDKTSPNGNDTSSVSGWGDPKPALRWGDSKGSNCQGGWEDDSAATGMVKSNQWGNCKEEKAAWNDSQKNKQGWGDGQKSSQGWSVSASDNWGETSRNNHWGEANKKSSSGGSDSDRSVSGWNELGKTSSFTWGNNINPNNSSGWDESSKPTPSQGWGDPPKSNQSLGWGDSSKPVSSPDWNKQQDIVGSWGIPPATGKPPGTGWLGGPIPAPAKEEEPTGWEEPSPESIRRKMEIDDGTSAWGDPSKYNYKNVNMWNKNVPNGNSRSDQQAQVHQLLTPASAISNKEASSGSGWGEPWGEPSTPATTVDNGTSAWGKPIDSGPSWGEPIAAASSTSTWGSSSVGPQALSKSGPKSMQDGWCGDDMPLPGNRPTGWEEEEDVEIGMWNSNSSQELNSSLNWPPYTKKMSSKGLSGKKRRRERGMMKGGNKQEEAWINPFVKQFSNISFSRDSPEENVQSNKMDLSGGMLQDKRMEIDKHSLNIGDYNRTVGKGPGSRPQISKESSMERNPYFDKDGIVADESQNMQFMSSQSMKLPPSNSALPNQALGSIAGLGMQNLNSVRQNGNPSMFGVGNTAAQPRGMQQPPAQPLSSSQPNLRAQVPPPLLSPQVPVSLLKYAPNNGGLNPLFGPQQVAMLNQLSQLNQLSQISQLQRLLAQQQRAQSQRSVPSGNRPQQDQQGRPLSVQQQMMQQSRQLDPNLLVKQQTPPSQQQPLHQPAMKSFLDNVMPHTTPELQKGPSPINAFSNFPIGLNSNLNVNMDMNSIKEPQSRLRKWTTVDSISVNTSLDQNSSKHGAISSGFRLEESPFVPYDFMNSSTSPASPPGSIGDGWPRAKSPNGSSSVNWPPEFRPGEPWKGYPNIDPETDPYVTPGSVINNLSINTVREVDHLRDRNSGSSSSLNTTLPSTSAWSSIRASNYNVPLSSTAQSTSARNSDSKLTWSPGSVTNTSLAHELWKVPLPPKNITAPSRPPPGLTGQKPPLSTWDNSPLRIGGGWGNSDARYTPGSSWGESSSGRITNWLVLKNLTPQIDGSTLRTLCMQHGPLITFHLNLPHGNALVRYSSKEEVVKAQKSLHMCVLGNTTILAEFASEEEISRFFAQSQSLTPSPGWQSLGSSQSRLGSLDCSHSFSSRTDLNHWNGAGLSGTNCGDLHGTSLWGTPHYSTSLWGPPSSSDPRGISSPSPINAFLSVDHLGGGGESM
UniProt Q9Y520: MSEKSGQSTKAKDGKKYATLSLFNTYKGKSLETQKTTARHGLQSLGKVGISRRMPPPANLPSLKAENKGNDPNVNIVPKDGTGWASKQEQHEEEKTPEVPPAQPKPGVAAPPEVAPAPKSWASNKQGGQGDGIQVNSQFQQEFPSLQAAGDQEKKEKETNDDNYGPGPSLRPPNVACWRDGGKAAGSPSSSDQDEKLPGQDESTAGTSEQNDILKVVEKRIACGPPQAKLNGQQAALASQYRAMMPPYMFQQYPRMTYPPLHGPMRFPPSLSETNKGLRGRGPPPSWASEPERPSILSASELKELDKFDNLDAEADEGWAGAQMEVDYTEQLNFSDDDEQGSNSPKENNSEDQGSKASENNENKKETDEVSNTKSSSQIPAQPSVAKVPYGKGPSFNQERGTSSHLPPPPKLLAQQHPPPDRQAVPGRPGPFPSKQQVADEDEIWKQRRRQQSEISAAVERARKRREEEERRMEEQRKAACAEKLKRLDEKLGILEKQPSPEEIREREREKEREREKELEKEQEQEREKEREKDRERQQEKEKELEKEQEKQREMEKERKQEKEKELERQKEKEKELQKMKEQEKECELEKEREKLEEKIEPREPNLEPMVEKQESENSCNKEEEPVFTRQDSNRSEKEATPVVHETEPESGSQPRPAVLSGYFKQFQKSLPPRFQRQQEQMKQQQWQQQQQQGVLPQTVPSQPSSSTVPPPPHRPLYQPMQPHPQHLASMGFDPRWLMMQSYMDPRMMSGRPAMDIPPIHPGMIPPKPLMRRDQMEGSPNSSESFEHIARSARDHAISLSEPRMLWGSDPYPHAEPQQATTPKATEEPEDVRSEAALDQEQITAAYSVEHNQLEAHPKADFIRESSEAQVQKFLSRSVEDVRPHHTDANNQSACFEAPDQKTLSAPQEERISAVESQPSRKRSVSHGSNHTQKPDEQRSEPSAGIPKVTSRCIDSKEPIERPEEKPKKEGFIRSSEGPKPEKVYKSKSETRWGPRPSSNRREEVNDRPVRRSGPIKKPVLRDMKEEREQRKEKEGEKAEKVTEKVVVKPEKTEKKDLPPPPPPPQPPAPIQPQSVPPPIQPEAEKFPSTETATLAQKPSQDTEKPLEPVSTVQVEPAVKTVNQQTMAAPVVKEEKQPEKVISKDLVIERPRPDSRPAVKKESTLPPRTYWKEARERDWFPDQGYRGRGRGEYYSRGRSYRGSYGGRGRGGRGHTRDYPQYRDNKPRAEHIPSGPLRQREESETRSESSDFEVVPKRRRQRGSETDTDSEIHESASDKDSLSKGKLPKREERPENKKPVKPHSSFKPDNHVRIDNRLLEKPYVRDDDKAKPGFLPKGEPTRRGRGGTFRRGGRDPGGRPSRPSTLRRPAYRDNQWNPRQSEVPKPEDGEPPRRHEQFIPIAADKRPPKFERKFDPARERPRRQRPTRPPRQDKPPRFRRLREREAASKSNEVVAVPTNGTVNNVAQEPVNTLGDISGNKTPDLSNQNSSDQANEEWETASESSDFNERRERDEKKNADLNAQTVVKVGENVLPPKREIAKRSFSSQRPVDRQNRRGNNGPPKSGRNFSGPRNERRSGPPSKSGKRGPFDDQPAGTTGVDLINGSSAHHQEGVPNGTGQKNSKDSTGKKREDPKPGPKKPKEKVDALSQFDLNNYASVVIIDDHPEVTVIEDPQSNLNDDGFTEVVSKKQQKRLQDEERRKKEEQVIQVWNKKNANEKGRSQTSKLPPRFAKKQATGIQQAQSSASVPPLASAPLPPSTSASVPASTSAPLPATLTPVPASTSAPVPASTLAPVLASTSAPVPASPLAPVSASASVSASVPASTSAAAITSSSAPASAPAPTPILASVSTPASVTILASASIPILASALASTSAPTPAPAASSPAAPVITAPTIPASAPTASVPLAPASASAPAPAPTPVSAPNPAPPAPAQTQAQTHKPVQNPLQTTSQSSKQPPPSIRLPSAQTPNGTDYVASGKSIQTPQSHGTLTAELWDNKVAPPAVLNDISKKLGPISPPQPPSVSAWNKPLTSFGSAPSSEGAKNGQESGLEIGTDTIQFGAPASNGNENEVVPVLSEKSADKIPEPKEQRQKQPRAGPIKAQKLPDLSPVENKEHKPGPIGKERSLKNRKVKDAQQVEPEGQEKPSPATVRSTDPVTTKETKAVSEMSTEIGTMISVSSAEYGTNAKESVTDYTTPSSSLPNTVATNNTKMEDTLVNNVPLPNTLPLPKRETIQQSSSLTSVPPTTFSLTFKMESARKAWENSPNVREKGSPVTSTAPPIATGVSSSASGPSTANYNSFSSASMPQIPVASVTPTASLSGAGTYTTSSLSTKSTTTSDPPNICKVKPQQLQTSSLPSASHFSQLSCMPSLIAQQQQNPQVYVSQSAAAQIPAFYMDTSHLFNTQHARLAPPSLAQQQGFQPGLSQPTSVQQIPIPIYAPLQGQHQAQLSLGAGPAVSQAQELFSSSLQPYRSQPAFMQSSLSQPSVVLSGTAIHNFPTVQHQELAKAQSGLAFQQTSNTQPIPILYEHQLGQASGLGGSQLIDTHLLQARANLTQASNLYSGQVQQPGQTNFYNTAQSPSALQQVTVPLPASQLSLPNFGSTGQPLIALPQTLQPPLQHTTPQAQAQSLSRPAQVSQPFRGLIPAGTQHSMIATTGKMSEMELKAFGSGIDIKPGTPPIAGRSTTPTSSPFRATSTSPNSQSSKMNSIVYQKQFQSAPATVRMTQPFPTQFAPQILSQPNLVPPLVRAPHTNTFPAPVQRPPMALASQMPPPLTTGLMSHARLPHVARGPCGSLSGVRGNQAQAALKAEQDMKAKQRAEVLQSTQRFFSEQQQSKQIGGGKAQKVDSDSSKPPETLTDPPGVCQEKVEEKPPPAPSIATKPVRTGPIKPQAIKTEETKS
UniProt Q13283: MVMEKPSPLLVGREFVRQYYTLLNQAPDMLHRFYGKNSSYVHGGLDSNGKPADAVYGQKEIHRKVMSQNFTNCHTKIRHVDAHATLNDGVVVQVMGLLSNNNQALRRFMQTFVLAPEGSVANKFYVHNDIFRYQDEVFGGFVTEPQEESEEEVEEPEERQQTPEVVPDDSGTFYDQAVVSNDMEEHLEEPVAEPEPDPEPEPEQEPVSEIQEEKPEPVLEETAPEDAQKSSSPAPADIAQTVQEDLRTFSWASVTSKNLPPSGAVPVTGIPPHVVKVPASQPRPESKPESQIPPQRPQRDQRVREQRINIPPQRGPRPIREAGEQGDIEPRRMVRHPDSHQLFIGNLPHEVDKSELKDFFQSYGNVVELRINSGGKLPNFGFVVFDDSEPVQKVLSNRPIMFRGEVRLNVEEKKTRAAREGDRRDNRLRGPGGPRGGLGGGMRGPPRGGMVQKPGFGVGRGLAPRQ
UniProt Q14157: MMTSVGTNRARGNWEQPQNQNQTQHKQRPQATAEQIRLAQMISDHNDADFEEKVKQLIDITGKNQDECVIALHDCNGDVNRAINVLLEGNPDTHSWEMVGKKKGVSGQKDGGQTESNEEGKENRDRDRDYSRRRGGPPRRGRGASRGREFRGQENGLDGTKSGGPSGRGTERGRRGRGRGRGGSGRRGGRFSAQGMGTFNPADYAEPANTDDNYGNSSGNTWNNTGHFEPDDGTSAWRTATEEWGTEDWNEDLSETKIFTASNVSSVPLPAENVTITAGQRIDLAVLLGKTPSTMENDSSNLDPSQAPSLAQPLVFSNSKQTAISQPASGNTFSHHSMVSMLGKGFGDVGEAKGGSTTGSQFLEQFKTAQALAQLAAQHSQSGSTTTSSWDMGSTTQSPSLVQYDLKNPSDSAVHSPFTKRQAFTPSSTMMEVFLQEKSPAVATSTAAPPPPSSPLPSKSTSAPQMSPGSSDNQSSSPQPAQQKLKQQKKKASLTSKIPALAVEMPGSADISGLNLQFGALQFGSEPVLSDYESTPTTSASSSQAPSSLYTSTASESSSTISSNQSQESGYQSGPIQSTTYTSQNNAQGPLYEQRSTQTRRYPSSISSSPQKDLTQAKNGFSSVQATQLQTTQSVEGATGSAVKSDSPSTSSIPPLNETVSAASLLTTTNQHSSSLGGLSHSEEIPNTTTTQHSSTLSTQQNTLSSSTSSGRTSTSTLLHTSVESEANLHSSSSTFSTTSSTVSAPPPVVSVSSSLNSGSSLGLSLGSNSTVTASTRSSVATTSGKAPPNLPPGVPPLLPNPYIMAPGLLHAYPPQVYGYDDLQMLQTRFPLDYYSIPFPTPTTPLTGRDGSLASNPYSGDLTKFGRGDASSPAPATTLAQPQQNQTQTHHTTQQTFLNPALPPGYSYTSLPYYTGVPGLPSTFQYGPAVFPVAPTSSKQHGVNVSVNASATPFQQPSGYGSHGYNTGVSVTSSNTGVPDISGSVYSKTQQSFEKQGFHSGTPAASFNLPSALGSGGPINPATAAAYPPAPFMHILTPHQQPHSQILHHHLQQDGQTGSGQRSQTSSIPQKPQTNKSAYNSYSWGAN

According to PMC10158624:

B1: Metadherin (protein, UniProt Q86UE4 1-582)
chain: MAARSWQDELAQQAEEGSARLREMLSVGLGFLRTELGLDLGLEPKRYPGWVILVGTGALGLLLLFLLGYGWAAACAGARKKRRSPPRKREEAAAVPAAAPDDLALLKNLRSEEQKKKNRKKLSEKPKPNGRTVEVAEGEAVRTPQSVTAKQPPEIDKKNEKSKKNKKKSKSDAKAVQNSSRHDGKEVDEGAWETKISHREKRQQRKRDKVLTDSGSLDSTIPGIENTITVTTEQLTTASFPVGSKKNKGDSHLNVQVSNFKSGKGDSTLQVSSGLNENLTVNGGGWNEKSVKLSSQISAGEEKWNSVSPASAGKRKTEPSAWSQDTGDANTNGKDWGRSWSDRSIFSGIGSTAEPVSQSTTSDYQWDVSRNQPYIDDEWSGLNGLSSADPNSDWNAPAEEWGNWVDEERASLLKSQEPIPDDQKVSDDDKEKGEGALPTGKSKKKKKKKKKQGEDNSTAQDTEELEKEIREDLPVNTSKTRPKQEKAFSLKTISTSDPAEVLVKNSQPIKTLPPATSTEPSVILSKSDSDKSSSQVPPILQETDKSKSNTKQNSVPPSQTKSETSWESPKQIKKKKKARRET

Molecular target: T1, Snd1-BioID2 fusion (full-length mouse Snd1 fused to C-terminal BioID2, HA tag) (mouse) (UniProt Q78PY7)
T1 sequence: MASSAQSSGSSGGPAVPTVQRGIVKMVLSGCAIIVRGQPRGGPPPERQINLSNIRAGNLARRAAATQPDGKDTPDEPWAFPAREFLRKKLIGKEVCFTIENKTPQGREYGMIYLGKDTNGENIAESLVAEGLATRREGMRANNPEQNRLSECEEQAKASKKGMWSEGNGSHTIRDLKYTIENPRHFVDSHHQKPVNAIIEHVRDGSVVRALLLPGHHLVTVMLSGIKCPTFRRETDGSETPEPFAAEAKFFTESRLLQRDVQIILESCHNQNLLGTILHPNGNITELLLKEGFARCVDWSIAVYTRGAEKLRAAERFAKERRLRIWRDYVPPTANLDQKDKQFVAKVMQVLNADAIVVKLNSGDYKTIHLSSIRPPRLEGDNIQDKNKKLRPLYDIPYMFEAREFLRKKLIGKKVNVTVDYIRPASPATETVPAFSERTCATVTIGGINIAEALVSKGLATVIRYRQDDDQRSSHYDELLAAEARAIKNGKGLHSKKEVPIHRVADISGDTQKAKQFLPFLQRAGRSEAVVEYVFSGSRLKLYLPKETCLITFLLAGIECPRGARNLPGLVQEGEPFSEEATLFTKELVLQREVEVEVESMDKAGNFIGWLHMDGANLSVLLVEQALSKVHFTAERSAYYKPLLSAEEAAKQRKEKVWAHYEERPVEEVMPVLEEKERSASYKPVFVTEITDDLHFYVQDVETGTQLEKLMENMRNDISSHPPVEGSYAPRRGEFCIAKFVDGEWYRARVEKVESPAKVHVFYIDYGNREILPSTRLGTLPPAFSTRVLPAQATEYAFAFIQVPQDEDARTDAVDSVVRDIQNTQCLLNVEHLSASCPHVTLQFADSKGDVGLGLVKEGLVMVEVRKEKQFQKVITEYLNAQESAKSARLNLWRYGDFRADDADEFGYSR
Test: proximity labelling; BioID2: Snd1-BioID2-HA transiently expressed in HEK-293T, 10 uM biotin; non-stressed, heat shock (42°C, 12 h) or hypoxia (2% oxygen, 12 h); lysis in RIPA-500, biotinylated proteins captured on streptavidin-agarose, on-bead digestion, LC-ESI-MS/MS; proteins also found with empty BioID2 excluded

| Molecule | binding |
| --- | --- |
| Trinucleotide repeat-containing gene 6B (from UniProt Q9UPQ9 1-1833) | binds |
| EIF3CL (from UniProt B5ME19 1-914) | binds |
| Trinucleotide repeat-containing gene 6A (from UniProt Q8NDV7 1-1962) | binds |
| Microtubule Associated Protein 4 (from UniProt P27816 1-1152) | binds |
| PRRC2C (from UniProt Q9Y520 1-2896) | binds |
| DDX3X (from UniProt O00571 1-662) | binds |
| Ras GTPase-activating protein-binding protein 1 (from UniProt Q13283 1-466) | binds |
| UBAP2L (from UniProt Q14157 1-1087) | binds |
| B1 | binds |

Results are given in words; binding and its absence hold for the method and conditions named. Binding seen in cells or lysates may run through a third protein. Here binding means that the protein was enriched with, or labelled near, the bait; the list need not be complete. Where a sequence is shown, tags or fusion partners need not be part of it.
